Results reported in doi:10.1101/2025.06.29.661413.
No constants are given. Whether binding was seen depends on the method and setting. Binding seen in cells or lysates may run through a third protein. Some entries that bind do so weakly or less than the wild type.

Molecular target: T1, PhoP (B. subtilis (endogenous in MH9237)) (UniProt P13792)
T1 sequence: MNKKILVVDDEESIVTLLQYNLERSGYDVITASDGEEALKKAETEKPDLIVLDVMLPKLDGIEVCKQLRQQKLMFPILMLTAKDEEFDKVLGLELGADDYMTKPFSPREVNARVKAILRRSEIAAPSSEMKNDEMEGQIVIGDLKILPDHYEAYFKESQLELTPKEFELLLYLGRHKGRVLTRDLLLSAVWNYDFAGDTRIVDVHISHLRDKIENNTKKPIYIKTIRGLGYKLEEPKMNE
Test: co-IP + cross-linking

B1: YycG (protein, UniProt Q45614 1-611)
chain: MNKVGFFRSIQFKITLIYVLLIIIAMQIIGVYFVNQVEKSLISSYEQSLNQRIDNLSYYIEQEYKSDNDSTVIKDDVSRILNDFTKSDEVREISFVDKSYEVVGSSKPYGEEVAGKQTTDLIFKRIFSTKQSYLRKYYDPKSKIRVLISAKPVMTENQEVVGAIYVVASMEDVFNQMKTINTILASGTGLALVLTALLGIFLARTITHPLSDMRKQAMELAKGNFSRKVKKYGHDEIGQLATTFNHLTRELEDAQAMTEGERRKLASVIAYMTDGVIATNRNGAIILLNSPALELLNVSRETALEMPITSLLGLQENYTFEDLVEQQDSMLLEIERDDELTVLRVNFSVIQREHGKIDGLIAVIYDVTEQEKMDQERREFVANVSHELRTPLTTMRSYLEALAEGAWENKDIAPRFLMVTQNETERMIRLVNDLLQLSKFDSKDYQFNREWIQIVRFMSLIIDRFEMTKEQHVEFIRNLPDRDLYVEIDQDKITQVLDNIISNALKYSPEGGHVTFSIDVNEEEELLYISVKDEGIGIPKKDVEKVFDRFYRVDKARTRKLGGTGLGLAIAKEMVQAHGGDIWADSIEGKGTTITFTLPYKEEQEDDWDEA
- binding: binds
